Record: PubChem BioAssay AID720505 (Drosophila RNAi Screening Center, 2013)
The deposit covers about 20,000 reagents; this is an unselected part of those with a known target gene and a result. In the full data, about 2,100 (10%) were called active. 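Raw plate signals without normalisation; calls rest on control-based scores that were not deposited; replicate 2 separates called from uncalled poorly.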 Entries without a mark were called inactive. A plus sign joins genes that one reagent is predicted to hit. The record does not give: the amount of reagent, the time to read-out.

Purpose: 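Genes needed for store-operated calcium entry in fly cells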 (primary screen)
System: Drosophila S2R+ cells
Knock-down reagent: long dsRNA against Drosophila genes
Conditions: thapsigargin (2 µM) in calcium-free buffer to empty internal stores, then 2 mM calcium added back
Measured: 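Fluo-4 signal in 384-well plates read on a FLIPR after thapsigargin (2 µM, calcium-free) store depletion and 2 mM calcium add-back; unnormalised mean endpoint per well; screen run twice, selected wells retested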
Scale: calcium signal and retest calcium signal: higher = more calcium entry after store depletion
Rule for the call: 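About 1500 genes called as lowering calcium entry, by varying amounts, judged against per-plate control wells with STIM1 as positive and Rho1 as negative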
Meaning of the calls: active = called as lowering calcium entry; inactive = not called

| gene | dsRNA | calcium signal, replicate 1 | calcium signal, replicate 2 | retest calcium signal, replicate 1 | retest calcium signal, replicate 2 |
| --- | --- | --- | --- | --- | --- |
| sktl (skittles) | DRSC04715 | 153 | 79.2 | – | – |
| Urm1 (Ubiquitin-related modifier 1) | DRSC22941 | 81.9 | 154 | – | – |
| Nsun2 (NOP2-Sun domain family, member 2) | DRSC18662 | 119 | 120 | 88.5 | 87.8 |
| eIF3m (eukaryotic translation initiation factor 3 subunit m) | DRSC07142 | 106 | 156 | – | – |
| primo-2 + primo-1 | DRSC16511 | 137 | 153 | – | – |
| CG45067 | DRSC08414 | 100 | 102 | – | – |
| Act79B (Actin 79B) | DRSC11604 | 90.5 | 125 | – | – |
| ifc (infertile crescent) | DRSC03549 | 105 | 217 | – | – |
| U2af50 (U2 small nuclear riboprotein auxiliary factor 50) | DRSC20297 | 120 | 130 | – | – |
| U2af50 (U2 small nuclear riboprotein auxiliary factor 50) | DRSC22867 | 88 | 90.4 | – | – |
| fry (furry) | DRSC10172 | 94.5 | 117 | – | – |
| fry (furry) | DRSC10709 | 81.3 | 107 | – | – |
| fry (furry) | DRSC10712 | 108 | 94.7 | – | – |

Single entries from the entries so far.
Entry of fry (furry) [DRSC10709] in “calcium signal, replicate 2”: 107
Value for CG45067 [DRSC08414] in “calcium signal, replicate 1”: 100
For “calcium signal, replicate 1”, ifc (infertile crescent) [DRSC03549] has 105
Value for U2af50 (U2 small nuclear riboprotein auxiliary factor 50) [DRSC20297] in “calcium signal, replicate 1”: 120
eIF3m (eukaryotic translation initiation factor 3 subunit m) [DRSC07142], calcium signal, replicate 1 = 106
primo-2 + primo-1 [DRSC16511], calcium signal, replicate 1 = 137

Further results follow.
| gene | dsRNA | calcium signal, replicate 1 | calcium signal, replicate 2 | retest calcium signal, replicate 1 | retest calcium signal, replicate 2 |
| --- | --- | --- | --- | --- | --- |
| puc (puckered) | DRSC17034 | 99.1 | 189 | – | – |
| PolE2 (DNA polymerase epsilon subunit 2) | DRSC09737 | 93.7 | 105 | – | – |
| CAP | DRSC05215 | 96.9 | 120 | – | – |
| CAP | DRSC06743 | 139 | 198 | – | – |
| CAP | DRSC06744 | 107 | 137 | – | – |
| CAP | DRSC06745 | 93.6 | 140 | – | – |
| CAP | DRSC06846 | 130 | 123 | – | – |
| svr (silver) | DRSC18841 | 133 | 162 | – | – |
| CG5731 | DRSC02883 | 117 | 132 | – | – |
| COX1 (retired record) | DRSC21275 | 77.4 (active) | 209 | – | – |
| mrj | DRSC22592 | 121 | 138 | – | – |
| CG9016 | DRSC03127 | 230 | 105 | – | – |
| Mst57Dc (Male-specific transcript 57Dc) | DRSC16745 | 165 | 140 | – | – |
| Pgk (Phosphoglycerate kinase) | DRSC00769 | 179 | 147 | – | – |
| Pgk (Phosphoglycerate kinase) | DRSC23340 | 90.2 | 126 | – | – |
| Mppe (Metallophosphoesterase) | DRSC07296 | 169 | 139 | – | – |
| sbm (sobremesa) | DRSC20185 | 100 | 129 | – | – |
| spz6 (spatzle 6) | DRSC04533 | 69 (active) | 131 | – | – |
| CG17751 | DRSC15261 | 256 | 145 | – | – |
| CG17751 | DRSC22837 | 81.3 | 115 | – | – |
| CG3168 | DRSC18287 | 117 | 106 | – | – |
